Some compounds share one wording; it may come from a single statement.
Experiment: DPPH antioxidant assay
Type: physicochemical
Conditions: 50 µM
Excerpt: The 2,2-diphenyl-1-picrylhydrazyl (DPPH) assay was used to determine the antioxidant properties of selected compounds using ascorbic acid, trolox, and quercetin as references. […] From a structural point of view, 21 and 22 share a common pyrimido[2,1-f]purinedione core with propyl or butyl substituents at the N1- and N3-position. Compounds 11i and 11l, containing hexyl or phenoxyethyl as N7-substituents, were the only structures in the groups of bicyclic xanthine derivatives that lacked antioxidant activity in the DPPH assay.
Antioxidant properties of considered structures were evaluated in DPPH test. The assay utilizes a stable free radical 2,2-diphenyl-1-picrylhydrazyl (DPPH). DPPH has a deep violet color in solution and strong absorption band at 520 nm. The antioxidant activity of the tested compounds was defined by their ability to induce the formation of the reduced form of DPPH. Upon reduction, DPPH color turned pale yellow, which manifested by decreased sample absorption at 520 nm and was measured in conducted experiments using EnSpire microplate reader (PerkinElmer). Antioxidant activity of xanthine derivatives and reference compounds was tested in triplicate at 50 µM concentration and normalized to the activity of reference radical scavenger—quercetin.
Figure 2 Antioxidant properties of xanthine derivatives evaluated in the DPPH test. All compounds were tested at 50 µM concentration. Results were normalized to the antioxidant activity measured for quercetin. ASC, ascorbic acid; TLX, trolox; QCT, quercetin.

## CCCCn1c(=O)c2c(nc3n2CCCN3CCc2ccc(O)c(O)c2)n(CCCC)c1=O [Compound 22, 1,3-Dibutyl-9-(3,4-dihydroxyphenethyl)-6,7,8,9-tetrahydropyrimido[2,1-f]purine-2,4(1H,3H)-dione]
  antioxidative activity in DPPH assay compared with quercetin: significantly lower antioxidative activity than quercetin

## CCCn1c(=O)c2c(nc3n2CCCN3CCc2ccc(O)c(O)c2)n(CCC)c1=O [Compound 21, 9-(3,4-Dihydroxyphenethyl)-1,3-dipropyl-6,7,8,9-tetrahydropyrimido[2,1-f]purine-2,4(1H,3H)-dione]
  antioxidative activity in DPPH assay compared with quercetin: significantly lower antioxidative activity than quercetin

## Cn1c(=O)c2c(nc(NCCc3ccc(O)c(O)c3)n2CCOc2ccccc2)n(C)c1=O [Compound 11l, 8-((3,4-Dihydroxyphenethyl)amino)-1,3-dimethyl-7-(2-phenoxyethyl)-3,7-dihydro-1H-purine-2,6-dione]
  antioxidative activity in DPPH assay compared with quercetin: significantly lower antioxidative activity than quercetin

## CCCCCCn1c(NCCc2ccc(O)c(O)c2)nc2c1c(=O)n(C)c(=O)n2C [Compound 11i, 8-((3,4-Dihydroxyphenethyl)amino)-7-hexyl-1,3-dimethyl-3,7-dihydro-1H-purine-2,6-dione]
  antioxidative activity in DPPH assay compared with quercetin: significantly lower antioxidative activity than quercetin

— article PMC10377586 (Biomolecules, 2023)
